Record: PubChem BioAssay AID1224830 (NIAID, 2016)
This is a random part of about 18,000 deposited reagents. In the full data, about 2,900 (16%) were called active. 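Calls are made per well; low scores hint the gene aids the LPS response, high scores that it dampens it.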 Unmarked entries are inactive. Repeated entries: four replicate wells of each siRNA pool.

Test: 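Host factors that control LPS-induced TNF expression in human macrophages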 (primary screen)
System: human THP-1 monocytic leukaemia cells, TNF dual-luciferase reporter clone, PMA-differentiated to macrophage-like cells
Reagents: siRNA pool against human genes, 50 nM
Timing: LPS for 4 h, given about 3 days after siRNA transfection
Treatment: bacterial LPS (TLR4 ligand), 10 ng/ml
Detection: 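Ratio of firefly to renilla light, scaled to the plate median and expressed as a robust z-score per replicate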
Reading the numbers: TNF reporter robust z-score: higher = stronger TNF reporter response to LPS
Active means: 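a well is active when its z-score exceeds 2.8 or falls below -1.5; control wells carry no call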

| target gene | PubChem SID | TNF reporter robust z-score |
| --- | --- | --- |
| CSRP3 | SID315452384 | 0.06 |
| CSRP3 | SID315452384 | 0.3 |
| CSRP3 | SID315452384 | 0.55 |
| CSRP3 | SID315452384 | 0.13 |
| UAP1 | SID315451595 | 0.63 |
| UAP1 | SID315451595 | -0.69 |
| UAP1 | SID315451595 | -0.04 |
| UAP1 | SID315451595 | -0.94 |
| DOCK11 | SID315462086 | 0.17 |
| DOCK11 | SID315462086 | -0.46 |
| DOCK11 | SID315462086 | 0.12 |
| DOCK11 | SID315462086 | -0.4 |
| MRPL36 | SID315459062 | -1.06 |
| MRPL36 | SID315459062 | -0.91 |
| MRPL36 | SID315459062 | -0.96 |
| MRPL36 | SID315459062 | -1.35 |
| TMOD4 | SID315456167 | 4.29 (active) |
| TMOD4 | SID315456167 | 2.01 |
| TMOD4 | SID315456167 | 1.67 |
| TMOD4 | SID315456167 | 2.71 |
| NR4A3 | SID315452371 | -0.66 |
| NR4A3 | SID315452371 | 0.31 |
| NR4A3 | SID315452371 | -0.58 |
| NR4A3 | SID315452371 | -0.63 |
| CCDC22 | SID315456072 | -0.09 |
| CCDC22 | SID315456072 | -0.41 |
| CCDC22 | SID315456072 | -0.4 |
| CCDC22 | SID315456072 | 0.45 |
| IQCH | SID315459005 | 0.22 |
| IQCH | SID315459005 | 1.23 |
| IQCH | SID315459005 | 0.45 |
| IQCH | SID315459005 | 0.11 |
| ARSF | SID315447418 | -0.79 |
| ARSF | SID315447418 | 0.07 |
| ARSF | SID315447418 | -0.39 |
| ARSF | SID315447418 | -0.02 |
| SIRT6 | SID315456773 | -0.59 |
| SIRT6 | SID315456773 | -0.26 |
| SIRT6 | SID315456773 | -0.31 |
| SIRT6 | SID315456773 | 0.49 |
| SMARCE1 | SID315451533 | -1.76 (active) |
| SMARCE1 | SID315451533 | -1.73 (active) |
| SMARCE1 | SID315451533 | -1.98 (active) |
| SMARCE1 | SID315451533 | -1.62 (active) |
| DTD2 | SID315461144 | -0.75 |
| DTD2 | SID315461144 | -0.45 |
| DTD2 | SID315461144 | 0.29 |
| DTD2 | SID315461144 | 0.2 |
